No constants are given. Whether binding was seen depends on the method and setting. In cells and extracts the contact can be indirect. For part of these data: Binding calls can cover weak binding; strength is not graded here.
Key:
YFP‐tagged B56α [1] = experiment: co-IP; YFP-B56α variants purified on GFP-trap from nocodazole-arrested (mitotic shake-off) stable HeLa cells; low salt lysis buffer (50 mM Tris-HCl pH 7.5, 50 mM NaCl, 0.1% NP-40); immunoblot
YFP‐B56α R222E = experiment: as above
YFP‐tagged B56α [2] = experiment: co-IP; competition with purified hSgo1 proteins: the endogenous proteins on YFP-B56α (GFP-trap, mitotic HeLa), buffer control against hSgo1
YFP‐tagged B56α [3] = experiment: co-IP; peptide competition: the endogenous proteins on YFP-B56α (GFP-trap, mitotic HeLa) with LxxIxE or LxxAxA peptide
YFP‐tagged B56α [4] = experiment: co-IP; peptide competition: LxxIxE or LxxAxA peptide incubated with the cell lysate 30 min before GFP-trap of YFP-B56α; immunoblot, LI-COR; only the binder purified

B1: Kif4A (endogenous) (protein, UniProt O95239 1-1232)
chain: MKEEVKGIPVRVALRCRPLVPKEISEGCQMCLSFVPGEPQVVVGTDKSFTYDFVFDPSTEQEEVFNTAVAPLIKGVFKGYNATVLAYGQTGSGKTYSMGGAYTAEQENEPTVGVIPRVIQLLFKEIDKKSDFEFTLKVSYLEIYNEEILDLLCPSREKAQINIREDPKEGIKIVGLTEKTVLVALDTVSCLEQGNNSRTVASTAMNSQSSRSHAIFTISLEQRKKSDKNSSFRSKLHLVDLAGSERQKKTKAEGDRLKEGININRGLLCLGNVISALGDDKKGGFVPYRDSKLTRLLQDSLGGNSHTLMIACVSPADSNLEETLNTLRYADRARKIKNKPIVNIDPQTAELNHLKQQVQQLQVLLLQAHGGTLPGSITVEPSENLQSLMEKNQSLVEENEKLSRGLSEAAGQTAQMLERIILTEQANEKMNAKLEELRQHAACKLDLQKLVETLEDQELKENVEIICNLQQLITQLSDETVACMAAAIDTAVEQEAQVETSPETSRSSDAFTTQHALRQAQMSKELVELNKALALKEALARKMTQNDSQLQPIQYQYQDNIKELELEVINLQKEKEELVLELQTAKKDANQAKLSERRRKRLQELEGQIADLKKKLNEQSKLLKLKESTERTVSKLNQEIRMMKNQRVQLMRQMKEDAEKFRQWKQKKDKEVIQLKERDRKRQYELLKLERNFQKQSNVLRRKTEEAAAANKRLKDALQKQREVADKRKETQSRGMEGTAARVKNWLGNEIEVMVSTEEAKRHLNDLLEDRKILAQDVAQLKEKKESGENPPPKLRRRTFSLTEVRGQVSESEDSITKQIESLETEMEFRSAQIADLQQKLLDAESEDRPKQRWENIATILEAKCALKYLIGELVSSKIQVSKLESSLKQSKTSCADMQKMLFEERNHFAEIETELQAELVRMEQQHQEKVLYLLSQLQQSQMAEKQLEESVSEKEQQLLSTLKCQDEELEKMREVCEQNQQLLRENEIIKQKLTLLQVASRQKHLPKDTLLSPDSSFEYVPPKPKPSRVKEKFLEQSMDIEDLKYCSEHSVNEHEDGDGDDDEGDDEEWKPTKLVKVSRKNIQGCSCKGWCGNKQCGCRKQKSDCGVDCCCDPTKCRNRQQGKDSLGTVERTQDSEGSFKLEDPTEVTPGLSFFNPVCATPNSKILKEMCDVEQVLSKKTPPAPSPFDLPELKHVATEYQENKAPGKKKKRALASNTSFFSGCSPIEEEAH
For B1, which binding (YFP‐tagged B56α [1]) is on record?
The binding was “binds”.

What about the binding (YFP‐B56α R222E) of the same binder?
The binding was “no binding”.

And the binding (YFP‐tagged B56α [2])?
Its binding is “binds”.

And the binding (YFP‐tagged B56α [3])?
Its binding is “binds”.

B2: peptide containing LxxIxE motif (peptide)
peptide: LPRSSTLPTIHEEEELSLC
Which binding (YFP‐tagged B56α [4]) does the source give for B2 here?
Its binding is “binds”.

B3: control mutant peptide LxxAxA (peptide)
peptide: LPRSSTLPTAHAEEELSLC
For B3, which binding (YFP‐tagged B56α [4]) is on record?
Its binding is “no binding”.

Source: publication PMC8256288
